{
  "sequences": {"note": "Sequences of proteins named here, by UniProt entry; tags and fusion partners are left off. A change or cut given only in a name is not applied to a line headed by its entry.", "UniProt Q92688": "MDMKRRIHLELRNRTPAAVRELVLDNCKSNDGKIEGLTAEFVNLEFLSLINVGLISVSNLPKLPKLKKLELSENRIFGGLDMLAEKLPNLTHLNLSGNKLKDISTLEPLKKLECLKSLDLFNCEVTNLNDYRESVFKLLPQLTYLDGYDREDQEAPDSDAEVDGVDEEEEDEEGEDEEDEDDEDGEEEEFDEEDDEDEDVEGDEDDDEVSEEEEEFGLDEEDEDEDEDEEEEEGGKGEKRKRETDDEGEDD", "UniProt Q8N8A2": "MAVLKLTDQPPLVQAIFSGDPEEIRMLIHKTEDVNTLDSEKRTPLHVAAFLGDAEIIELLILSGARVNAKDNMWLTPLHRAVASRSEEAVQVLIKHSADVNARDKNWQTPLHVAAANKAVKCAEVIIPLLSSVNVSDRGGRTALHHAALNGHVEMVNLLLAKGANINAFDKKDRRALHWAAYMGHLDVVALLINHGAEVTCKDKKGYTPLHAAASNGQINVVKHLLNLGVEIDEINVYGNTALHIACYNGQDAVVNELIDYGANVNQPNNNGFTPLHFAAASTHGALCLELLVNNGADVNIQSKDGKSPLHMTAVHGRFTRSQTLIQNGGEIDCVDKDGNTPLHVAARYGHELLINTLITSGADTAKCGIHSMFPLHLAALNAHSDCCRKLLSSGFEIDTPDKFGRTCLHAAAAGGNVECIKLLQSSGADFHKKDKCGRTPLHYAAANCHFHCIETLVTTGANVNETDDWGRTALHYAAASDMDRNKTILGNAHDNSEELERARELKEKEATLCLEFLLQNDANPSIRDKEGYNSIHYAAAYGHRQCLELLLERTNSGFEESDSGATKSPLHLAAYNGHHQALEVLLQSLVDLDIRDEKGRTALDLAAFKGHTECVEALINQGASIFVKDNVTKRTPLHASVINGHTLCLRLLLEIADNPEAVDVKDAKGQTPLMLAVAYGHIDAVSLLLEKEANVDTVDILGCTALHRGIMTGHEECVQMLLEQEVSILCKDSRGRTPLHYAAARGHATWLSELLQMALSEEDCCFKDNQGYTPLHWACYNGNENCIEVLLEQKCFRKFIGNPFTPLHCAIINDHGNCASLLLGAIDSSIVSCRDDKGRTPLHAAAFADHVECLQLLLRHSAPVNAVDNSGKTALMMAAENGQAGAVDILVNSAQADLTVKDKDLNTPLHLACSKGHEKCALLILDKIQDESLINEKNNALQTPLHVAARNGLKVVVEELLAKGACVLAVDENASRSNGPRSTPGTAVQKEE", "UniProt Q96NW4, whole entry, looked up": "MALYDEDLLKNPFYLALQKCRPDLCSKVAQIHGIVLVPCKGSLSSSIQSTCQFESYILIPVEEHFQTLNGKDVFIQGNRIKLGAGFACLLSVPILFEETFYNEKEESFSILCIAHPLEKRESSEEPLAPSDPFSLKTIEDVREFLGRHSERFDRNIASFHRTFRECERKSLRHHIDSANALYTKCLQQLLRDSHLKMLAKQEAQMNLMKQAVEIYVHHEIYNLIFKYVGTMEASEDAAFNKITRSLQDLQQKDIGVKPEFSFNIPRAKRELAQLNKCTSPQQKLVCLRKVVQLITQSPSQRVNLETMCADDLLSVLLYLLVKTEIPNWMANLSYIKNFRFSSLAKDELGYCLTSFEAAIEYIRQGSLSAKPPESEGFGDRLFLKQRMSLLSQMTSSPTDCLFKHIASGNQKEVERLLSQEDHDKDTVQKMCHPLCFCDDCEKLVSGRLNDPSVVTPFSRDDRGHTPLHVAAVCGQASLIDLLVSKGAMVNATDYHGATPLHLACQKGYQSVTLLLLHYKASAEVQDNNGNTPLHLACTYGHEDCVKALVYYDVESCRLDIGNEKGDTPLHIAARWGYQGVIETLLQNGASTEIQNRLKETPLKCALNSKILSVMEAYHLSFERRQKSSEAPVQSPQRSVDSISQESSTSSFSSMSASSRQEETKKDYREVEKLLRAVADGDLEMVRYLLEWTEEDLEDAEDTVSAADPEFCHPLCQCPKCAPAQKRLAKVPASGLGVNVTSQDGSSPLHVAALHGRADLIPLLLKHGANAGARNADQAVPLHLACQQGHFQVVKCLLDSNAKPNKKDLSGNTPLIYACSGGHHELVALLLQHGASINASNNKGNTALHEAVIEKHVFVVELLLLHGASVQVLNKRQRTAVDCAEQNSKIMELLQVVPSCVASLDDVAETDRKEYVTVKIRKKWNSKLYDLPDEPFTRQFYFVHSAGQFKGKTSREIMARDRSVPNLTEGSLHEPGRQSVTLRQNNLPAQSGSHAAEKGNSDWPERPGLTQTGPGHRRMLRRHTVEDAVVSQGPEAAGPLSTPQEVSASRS", "UniProt Q4KMQ2": "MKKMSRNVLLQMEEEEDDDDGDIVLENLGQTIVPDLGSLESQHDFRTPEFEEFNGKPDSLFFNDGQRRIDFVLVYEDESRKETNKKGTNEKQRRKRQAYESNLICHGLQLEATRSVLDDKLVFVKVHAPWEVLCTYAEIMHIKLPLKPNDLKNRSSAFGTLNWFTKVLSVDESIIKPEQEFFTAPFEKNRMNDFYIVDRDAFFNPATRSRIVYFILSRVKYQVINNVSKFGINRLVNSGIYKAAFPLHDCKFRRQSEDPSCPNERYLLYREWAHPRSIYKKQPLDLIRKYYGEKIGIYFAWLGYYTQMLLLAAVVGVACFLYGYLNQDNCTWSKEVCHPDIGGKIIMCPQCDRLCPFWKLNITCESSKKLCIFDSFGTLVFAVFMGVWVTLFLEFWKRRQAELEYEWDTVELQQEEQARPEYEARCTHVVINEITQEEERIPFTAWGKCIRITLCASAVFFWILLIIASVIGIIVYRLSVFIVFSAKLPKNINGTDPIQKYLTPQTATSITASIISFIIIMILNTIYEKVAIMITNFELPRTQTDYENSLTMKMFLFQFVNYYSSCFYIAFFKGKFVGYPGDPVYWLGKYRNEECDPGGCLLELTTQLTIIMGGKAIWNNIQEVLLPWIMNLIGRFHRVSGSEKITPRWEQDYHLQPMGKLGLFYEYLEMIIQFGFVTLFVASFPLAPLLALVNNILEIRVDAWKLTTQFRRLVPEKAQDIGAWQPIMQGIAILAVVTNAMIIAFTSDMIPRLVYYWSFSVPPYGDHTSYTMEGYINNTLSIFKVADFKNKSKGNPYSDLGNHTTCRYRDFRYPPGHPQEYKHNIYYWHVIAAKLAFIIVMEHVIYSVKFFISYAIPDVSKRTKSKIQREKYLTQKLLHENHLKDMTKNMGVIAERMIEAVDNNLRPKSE", "UniProt Q9NRW3": "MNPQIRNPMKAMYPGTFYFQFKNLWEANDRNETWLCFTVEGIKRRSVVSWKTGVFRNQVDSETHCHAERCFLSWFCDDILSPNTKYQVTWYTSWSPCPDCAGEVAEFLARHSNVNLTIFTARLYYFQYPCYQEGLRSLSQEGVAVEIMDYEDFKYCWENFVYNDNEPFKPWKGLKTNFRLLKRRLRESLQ", "UniProt Q7Z5R6": "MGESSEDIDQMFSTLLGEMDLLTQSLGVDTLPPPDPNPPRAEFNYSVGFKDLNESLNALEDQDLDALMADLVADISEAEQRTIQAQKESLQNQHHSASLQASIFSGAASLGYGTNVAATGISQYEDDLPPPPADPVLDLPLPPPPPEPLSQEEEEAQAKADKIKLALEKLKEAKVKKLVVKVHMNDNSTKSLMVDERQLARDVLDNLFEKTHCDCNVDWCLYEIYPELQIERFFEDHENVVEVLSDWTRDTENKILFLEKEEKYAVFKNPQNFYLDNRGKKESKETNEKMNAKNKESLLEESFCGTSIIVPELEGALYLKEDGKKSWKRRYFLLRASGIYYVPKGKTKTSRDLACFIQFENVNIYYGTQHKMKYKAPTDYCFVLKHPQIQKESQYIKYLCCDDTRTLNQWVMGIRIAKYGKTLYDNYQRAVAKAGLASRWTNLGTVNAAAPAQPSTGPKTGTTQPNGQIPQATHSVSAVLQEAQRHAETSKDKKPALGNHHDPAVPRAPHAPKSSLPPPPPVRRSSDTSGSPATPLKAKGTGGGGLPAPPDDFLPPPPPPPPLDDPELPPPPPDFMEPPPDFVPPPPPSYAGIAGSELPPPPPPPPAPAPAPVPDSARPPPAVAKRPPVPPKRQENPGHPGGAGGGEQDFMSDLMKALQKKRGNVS", "UniProt O14617": "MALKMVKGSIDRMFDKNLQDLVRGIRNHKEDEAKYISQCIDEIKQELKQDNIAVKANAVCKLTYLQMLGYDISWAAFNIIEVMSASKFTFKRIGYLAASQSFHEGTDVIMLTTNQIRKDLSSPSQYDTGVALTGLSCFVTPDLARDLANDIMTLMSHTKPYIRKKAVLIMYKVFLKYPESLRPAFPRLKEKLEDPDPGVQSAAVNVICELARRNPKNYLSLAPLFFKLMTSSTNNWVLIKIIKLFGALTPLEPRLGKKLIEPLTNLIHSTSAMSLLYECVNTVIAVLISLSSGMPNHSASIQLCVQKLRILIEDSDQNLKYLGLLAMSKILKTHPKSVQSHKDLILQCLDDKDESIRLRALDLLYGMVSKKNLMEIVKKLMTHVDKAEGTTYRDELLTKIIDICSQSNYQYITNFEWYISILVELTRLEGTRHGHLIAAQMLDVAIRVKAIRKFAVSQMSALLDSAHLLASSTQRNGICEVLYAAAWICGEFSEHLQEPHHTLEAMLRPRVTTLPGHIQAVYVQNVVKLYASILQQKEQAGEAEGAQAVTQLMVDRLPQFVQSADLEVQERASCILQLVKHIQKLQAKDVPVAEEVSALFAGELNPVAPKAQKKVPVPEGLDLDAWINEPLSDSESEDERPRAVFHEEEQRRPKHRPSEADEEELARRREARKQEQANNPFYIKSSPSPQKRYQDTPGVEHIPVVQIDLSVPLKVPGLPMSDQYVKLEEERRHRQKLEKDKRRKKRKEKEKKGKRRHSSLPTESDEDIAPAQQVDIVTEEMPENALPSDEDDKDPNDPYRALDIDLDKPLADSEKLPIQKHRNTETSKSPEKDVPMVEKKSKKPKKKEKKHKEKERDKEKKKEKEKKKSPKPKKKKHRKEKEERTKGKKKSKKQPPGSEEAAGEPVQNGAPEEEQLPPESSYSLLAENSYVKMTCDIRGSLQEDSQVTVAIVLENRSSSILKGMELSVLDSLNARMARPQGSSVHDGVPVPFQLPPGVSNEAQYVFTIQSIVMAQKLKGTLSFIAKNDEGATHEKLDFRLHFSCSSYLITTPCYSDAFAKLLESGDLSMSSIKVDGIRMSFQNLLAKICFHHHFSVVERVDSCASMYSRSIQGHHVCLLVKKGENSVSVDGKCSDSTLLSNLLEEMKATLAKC", "UniProt Q96CW1": "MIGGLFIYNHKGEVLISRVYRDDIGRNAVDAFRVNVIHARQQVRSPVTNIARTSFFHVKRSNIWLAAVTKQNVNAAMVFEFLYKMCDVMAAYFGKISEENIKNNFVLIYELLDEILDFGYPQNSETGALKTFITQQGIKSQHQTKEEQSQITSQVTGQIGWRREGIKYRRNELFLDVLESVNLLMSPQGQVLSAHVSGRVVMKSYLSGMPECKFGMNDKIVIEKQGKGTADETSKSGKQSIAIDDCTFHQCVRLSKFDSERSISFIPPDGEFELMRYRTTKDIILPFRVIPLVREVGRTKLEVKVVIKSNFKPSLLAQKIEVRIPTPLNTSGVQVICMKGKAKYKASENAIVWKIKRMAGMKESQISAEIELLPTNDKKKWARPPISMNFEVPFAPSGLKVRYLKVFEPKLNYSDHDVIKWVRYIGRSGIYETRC", "UniProt Q9HDC9": "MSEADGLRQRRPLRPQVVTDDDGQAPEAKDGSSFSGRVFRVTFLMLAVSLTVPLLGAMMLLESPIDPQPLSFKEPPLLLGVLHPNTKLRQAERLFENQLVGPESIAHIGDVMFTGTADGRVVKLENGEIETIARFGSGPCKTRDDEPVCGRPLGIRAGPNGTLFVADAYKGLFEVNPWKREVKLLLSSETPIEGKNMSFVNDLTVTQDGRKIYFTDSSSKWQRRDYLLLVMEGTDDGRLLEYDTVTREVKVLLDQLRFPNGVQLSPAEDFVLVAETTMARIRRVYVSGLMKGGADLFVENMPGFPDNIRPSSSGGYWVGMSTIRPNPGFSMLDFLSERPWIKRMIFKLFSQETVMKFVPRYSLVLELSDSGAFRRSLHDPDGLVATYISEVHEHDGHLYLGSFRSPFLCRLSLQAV", "UniProt P50995, whole entry, looked up": "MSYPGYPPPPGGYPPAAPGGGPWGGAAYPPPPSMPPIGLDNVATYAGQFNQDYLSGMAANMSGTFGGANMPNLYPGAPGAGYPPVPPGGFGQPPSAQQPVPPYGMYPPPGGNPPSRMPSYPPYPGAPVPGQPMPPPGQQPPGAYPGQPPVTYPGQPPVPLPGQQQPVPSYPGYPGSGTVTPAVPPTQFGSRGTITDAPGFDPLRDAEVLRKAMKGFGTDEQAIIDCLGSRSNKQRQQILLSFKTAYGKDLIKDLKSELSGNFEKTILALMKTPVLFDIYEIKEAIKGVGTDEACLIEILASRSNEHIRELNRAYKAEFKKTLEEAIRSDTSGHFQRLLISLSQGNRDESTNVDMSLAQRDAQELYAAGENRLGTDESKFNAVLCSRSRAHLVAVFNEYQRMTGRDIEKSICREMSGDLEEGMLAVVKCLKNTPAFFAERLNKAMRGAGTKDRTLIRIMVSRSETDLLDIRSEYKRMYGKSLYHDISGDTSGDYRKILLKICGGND"},
  "source": "the supplement of paper PMC12067093",
  "about": "“Discovery and optimisation of a covalent ligand for TRIM25 and its application to targeted protein ubiquitination” (Chemical Science, 2025)",
  "compound": "CC1Cc2ccccc2N1C(=O)C1CCCN(C1)C(=O)CCl (mixture of isomers) [TRIM25 ligand 11 (diastereomer mixture)]",
  "experiment": "probe-labelled cysteine peptide fold change vs DMSO (competition) (log2 fold change); higher = less target engagement (more negative = stronger competition)",
  "details": "THP-1, incubation time: 4 h",
  "note": "The list shows a part of the results.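 Note: competitive chemoproteomic profiling in live THP-1 cells with an iodoacetamide desthiobiotin (IA-DTB) probe, comparing probe-labelled peptide intensities in compound-treated cells against DMSO-treated controls.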",
  "data": [
    {"target": "ANP32B_Q92688_123_SLDLFNCEVTNLNDYRESVFK (UniProt Q92688)", "values": [
      {"measurement": "probe-labelled cysteine peptide fold change", "setting": "10 µM", "result": -0.406},
      {"measurement": "probe-labelled cysteine peptide fold change", "setting": "50 µM", "result": -0.183}
    ]},
    {"target": "AP4B1_Q9Y6B7_534_ILCSPK (UniProt Q9Y6B7)", "values": [
      {"measurement": "probe-labelled cysteine peptide fold change", "setting": "10 µM", "result": 0.0761},
      {"measurement": "probe-labelled cysteine peptide fold change", "setting": "50 µM", "result": -0.00258}
    ]},
    {"target": "ANKRD44_Q8N8A2_547_QCLELLLER (UniProt Q8N8A2)", "values": [
      {"measurement": "probe-labelled cysteine peptide fold change", "setting": "10 µM", "result": 0.182},
      {"measurement": "probe-labelled cysteine peptide fold change", "setting": "50 µM", "result": 0.355}
    ]},
    {"target": "ANKRD28_O15084_838_TPLHAAAFTDHVECLQLLLSHNAQVNSVDSTGK (UniProt O15084)", "values": [
      {"measurement": "probe-labelled cysteine peptide fold change", "setting": "10 µM", "result": -0.0389},
      {"measurement": "probe-labelled cysteine peptide fold change", "setting": "50 µM", "result": -0.0313}
    ]},
    {"target": "ANKRD27_Q96NW4_39_VAQIHGIVLVPCK (UniProt Q96NW4)", "values": [
      {"measurement": "probe-labelled cysteine peptide fold change", "setting": "10 µM", "result": 0.0719},
      {"measurement": "probe-labelled cysteine peptide fold change", "setting": "50 µM", "result": 0.0718}
    ]},
    {"target": "ANO6_Q4KMQ2_134_VHAPWEVLCTYAEIMHIK (UniProt Q4KMQ2)", "values": [
      {"measurement": "probe-labelled cysteine peptide fold change", "setting": "10 µM", "result": -0.0189},
      {"measurement": "probe-labelled cysteine peptide fold change", "setting": "50 µM", "result": -0.111}
    ]},
    {"target": "AP2A1_O95782_225_TCVSLAVSR (UniProt O95782)", "values": [
      {"measurement": "probe-labelled cysteine peptide fold change", "setting": "10 µM", "result": 0.135},
      {"measurement": "probe-labelled cysteine peptide fold change", "setting": "50 µM", "result": 0.0067}
    ]},
    {"target": "APOBEC3C_Q9NRW3_70+76_CFLSWFCDDILSPNTK (UniProt Q9NRW3)", "values": [
      {"measurement": "probe-labelled cysteine peptide fold change", "setting": "10 µM", "result": 0.0461},
      {"measurement": "probe-labelled cysteine peptide fold change", "setting": "50 µM", "result": 0.016}
    ]},
    {"target": "ANKHD1_Q8IWZ3_213_SLAEACSDGDVNAVR (UniProt Q8IWZ3)", "values": [
      {"measurement": "probe-labelled cysteine peptide fold change", "setting": "10 µM", "result": 0.203},
      {"measurement": "probe-labelled cysteine peptide fold change", "setting": "50 µM", "result": 0.151}
    ]},
    {"target": "AP2B1_P63010_241_DDREAQSICER (UniProt P63010)", "values": [
      {"measurement": "probe-labelled cysteine peptide fold change", "setting": "10 µM", "result": -0.0581},
      {"measurement": "probe-labelled cysteine peptide fold change", "setting": "50 µM", "result": -0.0343}
    ]},
    {"target": "ANKRD44_Q8N8A2_368_CGIHSMFPLHLAALNAHSDCCR (UniProt Q8N8A2)", "values": [
      {"measurement": "probe-labelled cysteine peptide fold change", "setting": "10 µM", "result": -0.0477},
      {"measurement": "probe-labelled cysteine peptide fold change", "setting": "50 µM", "result": 0.0132}
    ]},
    {"target": "ANKS1A_Q92625_75_GPNVNCVDSTGYTPLHHAALNGHK (UniProt Q92625)", "values": [
      {"measurement": "probe-labelled cysteine peptide fold change", "setting": "10 µM", "result": -0.0158},
      {"measurement": "probe-labelled cysteine peptide fold change", "setting": "50 µM", "result": -0.00182}
    ]},
    {"target": "ANKRD54_Q6NXT1_185_DGLGNTPLHLAACTNHVPVITTLLR (UniProt Q6NXT1)", "values": [
      {"measurement": "probe-labelled cysteine peptide fold change", "setting": "10 µM", "result": -0.041},
      {"measurement": "probe-labelled cysteine peptide fold change", "setting": "50 µM", "result": -0.0884}
    ]},
    {"target": "ANKRD46_Q86W74_85_FGADLLATDYQGNTALHLCGHVDTIQFLVSNGLK (UniProt Q86W74)", "values": [
      {"measurement": "probe-labelled cysteine peptide fold change", "setting": "10 µM", "result": 0.103},
      {"measurement": "probe-labelled cysteine peptide fold change", "setting": "50 µM", "result": 0.205}
    ]},
    {"target": "AP1G2_O75843_401_ADCASGILLAAER (UniProt O75843)", "values": [
      {"measurement": "probe-labelled cysteine peptide fold change", "setting": "10 µM", "result": 0.0532},
      {"measurement": "probe-labelled cysteine peptide fold change", "setting": "50 µM", "result": 0.169}
    ]},
    {"target": "ANKRD52_Q8NB46_1001_NGLASVVQALLSHGATVLAVDEEGHTPALACAPNK (UniProt Q8NB46)", "values": [
      {"measurement": "probe-labelled cysteine peptide fold change", "setting": "10 µM", "result": -0.105},
      {"measurement": "probe-labelled cysteine peptide fold change", "setting": "50 µM", "result": -0.371}
    ]},
    {"target": "APBB1IP_Q7Z5R6_220_THCDCNVDWCLYEIYPELQIER (UniProt Q7Z5R6)", "values": [
      {"measurement": "probe-labelled cysteine peptide fold change", "setting": "10 µM", "result": -0.104},
      {"measurement": "probe-labelled cysteine peptide fold change", "setting": "50 µM", "result": 0.00553}
    ]},
    {"target": "AP2A2_O94973_134_NPTFMGLALHCIASVGSR (UniProt O94973)", "values": [
      {"measurement": "probe-labelled cysteine peptide fold change", "setting": "10 µM", "result": 0.127},
      {"measurement": "probe-labelled cysteine peptide fold change", "setting": "50 µM", "result": 0.202}
    ]},
    {"target": "ANLN_Q9NQW6_353_EICLQSQSK (UniProt Q9NQW6)", "values": [
      {"measurement": "probe-labelled cysteine peptide fold change", "setting": "10 µM", "result": -0.116},
      {"measurement": "probe-labelled cysteine peptide fold change", "setting": "50 µM", "result": -0.167}
    ]},
    {"target": "AP3M1_Q9Y2T2_10_MIHSLFLINCSGDIFLEK (UniProt Q9Y2T2)", "values": [
      {"measurement": "probe-labelled cysteine peptide fold change", "setting": "10 µM", "result": 0.115},
      {"measurement": "probe-labelled cysteine peptide fold change", "setting": "50 µM", "result": 0.0501}
    ]},
    {"target": "AP1B1_Q10567_921_IQPGNPSCTDLELSLK (UniProt Q10567)", "values": [
      {"measurement": "probe-labelled cysteine peptide fold change", "setting": "10 µM", "result": 0.0204},
      {"measurement": "probe-labelled cysteine peptide fold change", "setting": "50 µM", "result": -0.0722}
    ]},
    {"target": "ANKIB1_Q9P2G1_640_ETEGGCPDTTFIEDAVHVLLK (UniProt Q9P2G1)", "values": [
      {"measurement": "probe-labelled cysteine peptide fold change", "setting": "10 µM", "result": -0.196},
      {"measurement": "probe-labelled cysteine peptide fold change", "setting": "50 µM", "result": -0.125}
    ]},
    {"target": "APC_P25054_661_ENNCLQTLLQHLK (UniProt P25054)", "values": [
      {"measurement": "probe-labelled cysteine peptide fold change", "setting": "10 µM", "result": 0.0836},
      {"measurement": "probe-labelled cysteine peptide fold change", "setting": "50 µM", "result": 0.0643}
    ]},
    {"target": "ANP32A_P39687_87_CPNLTHLNLSGNK (UniProt P39687)", "values": [
      {"measurement": "probe-labelled cysteine peptide fold change", "setting": "10 µM", "result": -0.175},
      {"measurement": "probe-labelled cysteine peptide fold change", "setting": "50 µM", "result": -0.227}
    ]},
    {"target": "AP3D1_O14617_348_DLILQCLDDKDESIR (UniProt O14617)", "values": [
      {"measurement": "probe-labelled cysteine peptide fold change", "setting": "10 µM", "result": 0.0293},
      {"measurement": "probe-labelled cysteine peptide fold change", "setting": "50 µM", "result": 0.136}
    ]},
    {"target": "AP2M1_Q96CW1_246+251_QSIAIDDCTFHQCVR (UniProt Q96CW1)", "values": [
      {"measurement": "probe-labelled cysteine peptide fold change", "setting": "10 µM", "result": 0.0346},
      {"measurement": "probe-labelled cysteine peptide fold change", "setting": "50 µM", "result": -0.0933}
    ]},
    {"target": "APBB1IP_Q7Z5R6_355_DLACFIQFENVNIYYGTQHK (UniProt Q7Z5R6)", "values": [
      {"measurement": "probe-labelled cysteine peptide fold change", "setting": "10 µM", "result": 0.0789},
      {"measurement": "probe-labelled cysteine peptide fold change", "setting": "50 µM", "result": 0.136}
    ]},
    {"target": "ANKRD50_Q9ULJ7_113_QALAFHFCK (UniProt Q9ULJ7)", "values": [
      {"measurement": "probe-labelled cysteine peptide fold change", "setting": "10 µM", "result": 0.472},
      {"measurement": "probe-labelled cysteine peptide fold change", "setting": "50 µM", "result": 0.778}
    ]},
    {"target": "ANKRD27_Q96NW4_795_CLLDSNAK (UniProt Q96NW4)", "values": [
      {"measurement": "probe-labelled cysteine peptide fold change", "setting": "10 µM", "result": -0.0492},
      {"measurement": "probe-labelled cysteine peptide fold change", "setting": "50 µM", "result": -0.0447}
    ]},
    {"target": "APMAP_Q9HDC9_149_TRDDEPVCGR (UniProt Q9HDC9)", "values": [
      {"measurement": "probe-labelled cysteine peptide fold change", "setting": "10 µM", "result": 0.0828},
      {"measurement": "probe-labelled cysteine peptide fold change", "setting": "50 µM", "result": 0.221}
    ]},
    {"target": "APOBEC3C_Q9NRW3_65_NQVDSETHCHAER (UniProt Q9NRW3)", "values": [
      {"measurement": "probe-labelled cysteine peptide fold change", "setting": "10 µM", "result": 0.15},
      {"measurement": "probe-labelled cysteine peptide fold change", "setting": "50 µM", "result": 0.0622}
    ]},
    {"target": "AOC1_P19801_391_YLDVGWGLGSVTHELAPGIDCPETATFLDTFHYYDADDPVHYPR (UniProt P19801)", "values": [
      {"measurement": "probe-labelled cysteine peptide fold change", "setting": "10 µM", "result": 0.298},
      {"measurement": "probe-labelled cysteine peptide fold change", "setting": "50 µM", "result": 0.165}
    ]},
    {"target": "ANXA11_P50995_294_GVGTDEACLIEILASR (UniProt P50995)", "values": [
      {"measurement": "probe-labelled cysteine peptide fold change", "setting": "10 µM", "result": -0.0864},
      {"measurement": "probe-labelled cysteine peptide fold change", "setting": "50 µM", "result": -0.027}
    ]},
    {"target": "ANKFY1_Q9P2R3_995_VLLTECTVDAEAFNLR (UniProt Q9P2R3)", "values": [
      {"measurement": "probe-labelled cysteine peptide fold change", "setting": "10 µM", "result": 0.097},
      {"measurement": "probe-labelled cysteine peptide fold change", "setting": "50 µM", "result": 0.189}
    ]},
    {"target": "AP2M1_Q96CW1_212_SYLSGMPECK (UniProt Q96CW1)", "values": [
      {"measurement": "probe-labelled cysteine peptide fold change", "setting": "10 µM", "result": 0.00293},
      {"measurement": "probe-labelled cysteine peptide fold change", "setting": "50 µM", "result": -0.0213}
    ]},
    {"target": "AP1G1_O43747_392_ELLYFLDSCEPEFK (UniProt O43747)", "values": [
      {"measurement": "probe-labelled cysteine peptide fold change", "setting": "10 µM", "result": 0.249},
      {"measurement": "probe-labelled cysteine peptide fold change", "setting": "50 µM", "result": 0.283}
    ]},
    {"target": "APMAP_Q9HDC9_149_TRDDEPVCGRPLGIR (UniProt Q9HDC9)", "values": [
      {"measurement": "probe-labelled cysteine peptide fold change", "setting": "10 µM", "result": -0.051},
      {"measurement": "probe-labelled cysteine peptide fold change", "setting": "50 µM", "result": -0.0843}
    ]}
  ]
}
